Results: the supplement of paper PMC10849652
This is one part of the list.

The chains behind the UniProt entries cited, without tags or fusion partners. Where a name states a change or a piece, a line headed by the entry shows the natural chain unless it says otherwise.
UniProt P35658: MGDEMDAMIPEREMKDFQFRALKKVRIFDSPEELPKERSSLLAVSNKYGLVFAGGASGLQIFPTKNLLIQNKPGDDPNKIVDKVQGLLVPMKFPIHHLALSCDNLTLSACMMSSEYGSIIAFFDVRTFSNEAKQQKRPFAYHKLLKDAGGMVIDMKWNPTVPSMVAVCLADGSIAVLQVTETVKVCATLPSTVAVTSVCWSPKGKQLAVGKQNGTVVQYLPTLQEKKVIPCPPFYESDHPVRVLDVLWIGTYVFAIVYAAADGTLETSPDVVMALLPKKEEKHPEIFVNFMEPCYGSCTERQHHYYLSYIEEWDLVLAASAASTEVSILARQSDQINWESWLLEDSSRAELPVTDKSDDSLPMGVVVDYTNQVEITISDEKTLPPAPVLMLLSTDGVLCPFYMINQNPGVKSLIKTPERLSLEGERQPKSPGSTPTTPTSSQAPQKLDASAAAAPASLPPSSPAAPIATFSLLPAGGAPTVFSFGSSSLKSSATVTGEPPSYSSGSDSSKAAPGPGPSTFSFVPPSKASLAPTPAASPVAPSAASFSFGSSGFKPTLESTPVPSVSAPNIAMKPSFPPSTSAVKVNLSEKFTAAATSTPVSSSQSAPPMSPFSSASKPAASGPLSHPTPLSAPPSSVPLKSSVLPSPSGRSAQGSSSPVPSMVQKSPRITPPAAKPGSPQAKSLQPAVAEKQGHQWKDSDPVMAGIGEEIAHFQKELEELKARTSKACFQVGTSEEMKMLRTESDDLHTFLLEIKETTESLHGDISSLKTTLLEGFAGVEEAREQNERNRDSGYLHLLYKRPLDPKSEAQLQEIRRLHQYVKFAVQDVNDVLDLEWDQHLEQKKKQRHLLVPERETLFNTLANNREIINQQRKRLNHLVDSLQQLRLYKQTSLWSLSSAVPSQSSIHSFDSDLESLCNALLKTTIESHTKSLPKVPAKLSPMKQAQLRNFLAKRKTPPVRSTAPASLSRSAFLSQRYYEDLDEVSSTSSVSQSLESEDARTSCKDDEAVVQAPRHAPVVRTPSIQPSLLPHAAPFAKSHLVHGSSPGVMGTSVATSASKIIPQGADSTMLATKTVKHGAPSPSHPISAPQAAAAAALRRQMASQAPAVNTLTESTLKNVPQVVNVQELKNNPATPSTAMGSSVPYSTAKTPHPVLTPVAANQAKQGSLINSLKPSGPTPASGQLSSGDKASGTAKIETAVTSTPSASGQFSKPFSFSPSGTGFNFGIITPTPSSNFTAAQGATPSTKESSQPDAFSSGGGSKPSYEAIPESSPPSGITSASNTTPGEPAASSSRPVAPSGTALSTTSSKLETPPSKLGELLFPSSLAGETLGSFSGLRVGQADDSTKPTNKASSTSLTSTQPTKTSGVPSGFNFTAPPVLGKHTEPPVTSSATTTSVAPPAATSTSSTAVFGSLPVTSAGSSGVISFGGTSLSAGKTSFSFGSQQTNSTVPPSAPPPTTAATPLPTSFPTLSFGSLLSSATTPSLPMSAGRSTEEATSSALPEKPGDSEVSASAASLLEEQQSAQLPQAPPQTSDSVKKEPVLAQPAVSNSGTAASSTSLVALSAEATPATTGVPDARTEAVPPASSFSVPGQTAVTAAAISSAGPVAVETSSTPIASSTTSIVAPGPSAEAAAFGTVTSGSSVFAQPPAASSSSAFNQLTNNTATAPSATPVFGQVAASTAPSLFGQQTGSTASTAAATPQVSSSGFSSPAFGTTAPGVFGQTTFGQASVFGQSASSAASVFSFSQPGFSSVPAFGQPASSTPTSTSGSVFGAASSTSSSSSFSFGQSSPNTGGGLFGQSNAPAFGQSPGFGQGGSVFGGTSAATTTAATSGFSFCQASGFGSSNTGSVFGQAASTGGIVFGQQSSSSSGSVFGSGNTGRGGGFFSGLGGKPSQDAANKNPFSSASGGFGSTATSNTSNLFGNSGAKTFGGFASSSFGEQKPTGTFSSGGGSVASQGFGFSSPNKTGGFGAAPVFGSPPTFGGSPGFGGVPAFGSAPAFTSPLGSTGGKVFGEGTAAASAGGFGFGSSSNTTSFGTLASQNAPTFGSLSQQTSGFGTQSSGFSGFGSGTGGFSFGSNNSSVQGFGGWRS
UniProt Q9BZ23: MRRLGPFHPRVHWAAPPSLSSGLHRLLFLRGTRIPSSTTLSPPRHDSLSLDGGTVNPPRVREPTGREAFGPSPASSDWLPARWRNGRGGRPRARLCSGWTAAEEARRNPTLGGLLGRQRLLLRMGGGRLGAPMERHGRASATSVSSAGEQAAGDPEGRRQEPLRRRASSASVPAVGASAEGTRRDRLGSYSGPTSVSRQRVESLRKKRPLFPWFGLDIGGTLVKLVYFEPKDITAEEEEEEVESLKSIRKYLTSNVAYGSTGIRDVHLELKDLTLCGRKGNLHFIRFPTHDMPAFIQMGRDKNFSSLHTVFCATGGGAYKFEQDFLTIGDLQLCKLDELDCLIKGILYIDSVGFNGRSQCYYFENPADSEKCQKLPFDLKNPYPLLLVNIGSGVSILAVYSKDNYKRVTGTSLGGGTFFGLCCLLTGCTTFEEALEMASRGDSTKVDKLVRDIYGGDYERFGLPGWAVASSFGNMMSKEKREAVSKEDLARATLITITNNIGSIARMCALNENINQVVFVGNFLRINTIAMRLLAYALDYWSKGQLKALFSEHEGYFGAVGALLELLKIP
UniProt O95747, whole entry, looked up: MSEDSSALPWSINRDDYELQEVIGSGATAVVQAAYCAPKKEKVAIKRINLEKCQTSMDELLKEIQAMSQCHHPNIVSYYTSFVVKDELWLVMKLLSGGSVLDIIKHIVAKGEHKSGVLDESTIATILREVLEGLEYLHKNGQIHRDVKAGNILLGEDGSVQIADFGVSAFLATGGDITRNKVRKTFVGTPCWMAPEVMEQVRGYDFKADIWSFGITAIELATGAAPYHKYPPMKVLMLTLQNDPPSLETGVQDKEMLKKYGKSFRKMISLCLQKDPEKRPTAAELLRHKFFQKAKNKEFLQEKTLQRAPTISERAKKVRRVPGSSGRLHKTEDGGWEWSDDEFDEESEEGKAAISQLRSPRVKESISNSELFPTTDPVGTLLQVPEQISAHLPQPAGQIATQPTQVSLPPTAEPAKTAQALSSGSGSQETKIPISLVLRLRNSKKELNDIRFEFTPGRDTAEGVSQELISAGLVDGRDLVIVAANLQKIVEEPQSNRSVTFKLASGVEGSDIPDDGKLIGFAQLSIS
UniProt Q96GU1: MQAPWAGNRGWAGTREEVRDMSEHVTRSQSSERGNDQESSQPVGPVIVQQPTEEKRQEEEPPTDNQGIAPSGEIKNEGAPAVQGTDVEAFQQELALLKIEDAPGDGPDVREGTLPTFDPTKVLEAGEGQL
UniProt Q9H6K4: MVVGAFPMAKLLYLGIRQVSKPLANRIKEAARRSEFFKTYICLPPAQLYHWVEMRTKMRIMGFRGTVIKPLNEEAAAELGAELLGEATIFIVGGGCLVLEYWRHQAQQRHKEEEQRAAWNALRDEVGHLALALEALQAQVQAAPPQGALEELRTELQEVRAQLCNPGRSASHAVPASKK
UniProt Q969R2: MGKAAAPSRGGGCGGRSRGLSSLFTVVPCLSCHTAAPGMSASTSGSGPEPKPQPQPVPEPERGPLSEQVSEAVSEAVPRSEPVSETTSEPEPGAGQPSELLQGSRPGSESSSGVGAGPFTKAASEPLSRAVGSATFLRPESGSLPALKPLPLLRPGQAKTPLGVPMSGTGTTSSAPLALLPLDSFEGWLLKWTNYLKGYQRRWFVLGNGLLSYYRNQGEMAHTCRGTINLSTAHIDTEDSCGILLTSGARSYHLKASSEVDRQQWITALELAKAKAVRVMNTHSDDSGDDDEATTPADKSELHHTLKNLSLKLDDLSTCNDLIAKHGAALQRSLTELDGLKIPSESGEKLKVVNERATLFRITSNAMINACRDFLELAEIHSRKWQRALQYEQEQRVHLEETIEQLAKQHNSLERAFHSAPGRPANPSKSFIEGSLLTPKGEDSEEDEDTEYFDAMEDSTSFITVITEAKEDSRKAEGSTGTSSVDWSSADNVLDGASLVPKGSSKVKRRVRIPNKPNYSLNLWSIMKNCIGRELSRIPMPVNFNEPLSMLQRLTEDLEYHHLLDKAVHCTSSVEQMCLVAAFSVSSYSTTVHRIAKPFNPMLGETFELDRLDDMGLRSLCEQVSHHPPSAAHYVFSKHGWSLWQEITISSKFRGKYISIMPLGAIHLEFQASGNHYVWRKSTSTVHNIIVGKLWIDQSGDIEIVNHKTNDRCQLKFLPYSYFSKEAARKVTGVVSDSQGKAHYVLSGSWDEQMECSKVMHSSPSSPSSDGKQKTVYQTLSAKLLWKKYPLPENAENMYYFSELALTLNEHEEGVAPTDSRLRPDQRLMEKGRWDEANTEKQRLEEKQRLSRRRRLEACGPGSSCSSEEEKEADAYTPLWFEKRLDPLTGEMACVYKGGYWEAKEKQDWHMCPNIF
UniProt Q9NRP0: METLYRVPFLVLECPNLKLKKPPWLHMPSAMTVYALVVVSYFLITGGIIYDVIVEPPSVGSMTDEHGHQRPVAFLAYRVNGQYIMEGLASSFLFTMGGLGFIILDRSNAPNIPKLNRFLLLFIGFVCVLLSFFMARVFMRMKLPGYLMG
UniProt Q6QHF9: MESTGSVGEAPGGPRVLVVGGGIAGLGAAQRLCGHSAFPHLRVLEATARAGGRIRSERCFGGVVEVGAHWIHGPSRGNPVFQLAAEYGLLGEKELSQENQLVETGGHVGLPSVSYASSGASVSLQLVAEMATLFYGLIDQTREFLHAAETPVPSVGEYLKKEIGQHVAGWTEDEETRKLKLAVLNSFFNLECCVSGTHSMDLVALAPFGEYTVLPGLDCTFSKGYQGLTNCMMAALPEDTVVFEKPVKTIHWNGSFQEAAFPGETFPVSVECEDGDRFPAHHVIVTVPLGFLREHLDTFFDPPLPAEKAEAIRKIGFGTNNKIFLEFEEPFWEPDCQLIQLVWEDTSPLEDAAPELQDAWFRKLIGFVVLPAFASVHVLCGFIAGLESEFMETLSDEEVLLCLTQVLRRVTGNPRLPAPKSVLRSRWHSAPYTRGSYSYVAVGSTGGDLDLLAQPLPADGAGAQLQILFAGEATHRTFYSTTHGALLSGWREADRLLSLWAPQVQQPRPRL
UniProt Q9H4L5: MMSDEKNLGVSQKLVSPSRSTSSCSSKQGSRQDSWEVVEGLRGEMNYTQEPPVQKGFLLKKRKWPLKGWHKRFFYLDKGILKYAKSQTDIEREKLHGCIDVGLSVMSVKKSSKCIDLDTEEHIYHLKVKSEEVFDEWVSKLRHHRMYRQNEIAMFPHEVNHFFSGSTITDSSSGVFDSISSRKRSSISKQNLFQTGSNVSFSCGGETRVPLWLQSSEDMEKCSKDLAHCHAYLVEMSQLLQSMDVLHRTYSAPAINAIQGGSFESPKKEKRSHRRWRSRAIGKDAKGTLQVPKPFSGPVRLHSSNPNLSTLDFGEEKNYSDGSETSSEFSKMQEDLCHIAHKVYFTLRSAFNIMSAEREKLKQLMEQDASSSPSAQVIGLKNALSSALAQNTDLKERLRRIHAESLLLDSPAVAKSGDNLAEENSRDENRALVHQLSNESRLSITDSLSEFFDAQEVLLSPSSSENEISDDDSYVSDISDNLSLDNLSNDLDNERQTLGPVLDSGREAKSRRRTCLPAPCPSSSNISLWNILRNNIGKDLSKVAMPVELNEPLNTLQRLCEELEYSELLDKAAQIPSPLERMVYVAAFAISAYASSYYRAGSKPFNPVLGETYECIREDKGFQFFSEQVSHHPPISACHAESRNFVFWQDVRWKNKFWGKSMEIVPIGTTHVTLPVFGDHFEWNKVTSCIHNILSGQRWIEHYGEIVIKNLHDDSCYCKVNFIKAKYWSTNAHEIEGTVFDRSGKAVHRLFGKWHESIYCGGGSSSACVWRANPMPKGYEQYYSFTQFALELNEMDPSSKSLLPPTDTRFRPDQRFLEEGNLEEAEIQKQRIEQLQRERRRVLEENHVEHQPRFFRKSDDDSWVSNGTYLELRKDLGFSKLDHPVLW
UniProt Q96G74: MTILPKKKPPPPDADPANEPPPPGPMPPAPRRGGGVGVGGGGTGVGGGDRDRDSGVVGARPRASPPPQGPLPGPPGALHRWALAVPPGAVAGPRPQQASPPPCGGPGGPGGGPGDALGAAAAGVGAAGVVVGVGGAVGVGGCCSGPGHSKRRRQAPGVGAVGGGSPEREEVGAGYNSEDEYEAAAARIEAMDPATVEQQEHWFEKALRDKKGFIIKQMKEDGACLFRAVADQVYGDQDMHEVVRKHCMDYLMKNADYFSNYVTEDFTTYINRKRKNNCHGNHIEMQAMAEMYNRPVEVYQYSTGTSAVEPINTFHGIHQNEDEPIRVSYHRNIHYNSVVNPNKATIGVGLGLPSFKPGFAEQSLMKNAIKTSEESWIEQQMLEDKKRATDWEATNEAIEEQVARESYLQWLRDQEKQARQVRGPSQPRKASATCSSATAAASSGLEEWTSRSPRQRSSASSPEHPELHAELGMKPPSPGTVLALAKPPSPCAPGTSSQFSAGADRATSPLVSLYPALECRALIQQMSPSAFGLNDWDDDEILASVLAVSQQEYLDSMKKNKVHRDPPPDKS

Assays:
Experiment in all cases: log2 fold change, soluble protein after heating vs DMSO (PISA); higher = thermal stabilisation; K562 lysate, 10 uM; active = over 0.2 and 3.5 SD of the protein, either way, in both replicates (recomputed)
[1] = compound: C1=CC=C(C=C1)[C@H](COC2=CC3=C(C=C2)NC(=O)N3)NC(=O)C4=CC=CN(C4=O)CC5=CC(=C(C=C5)F)F
Method in brief: (§1)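 Quantification was by TMTpro 16plex LC-MS/MS with equalised channel sums, applied to the supernatant after 21,000xg for 90 min. Samples were crude K562 extract at 1 mg/mL protein in PBS pH 7.4 with 1 mM MgCl2, treated with 10 μM compound for 30 min, heated for 3 min across 48°C-58°C, pooled and brought to 0.5% NP-40 at 4°C. Values are log-two fold changes in thermal stability relative to solvent controls, from duplicates.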

[2] = compound: CC1=C(SC2=C1C(=N[C@H](C3=NN=C(N32)C)CC(=O)N)C4=CC=C(C=C4)Cl)C
Method in brief: as §1

[3] = compound: CC1=C2C(=CC=C1)N=C(N(C2=O)C3=CC=CC=C3C)CN4C=NC5=C(N=CN=C54)N
Method in brief: as §1

[4] = compound: Cc1sc2c(c1C)C(c1ccc(Cl)cc1)=N[C@@H](CC(=O)OC(C)(C)C)c1nnc(C)n1-2
Method in brief: as §1

[5] = compound: c1ccc([C@@H]2C[C@H]2NC2CCNCC2)cc1
Method in brief: as §1

Measured: log2 fold change

OGFOD2 (UniProt Q6N063)
inactive: [1] -0.079 | [2] 0.049 | [3] -0.07 | [4] 0.033 | [5] 0.076

ORC5 (UniProt O43913)
inactive: [1] -0.037 | [2] -0.022 | [3] 0.029 | [4] 0.003 | [5] 0.021

NUP214 (UniProt P35658)
inactive: [1] -0.032 | [2] 0.021 | [3] -0.008 | [4] -0.034 | [5] -0.002

NXF1 (UniProt Q9UBU9)
inactive: [1] 0 | [2] 0.116 | [3] 0.064 | [4] 0.044 | [5] -0.02

OGT (UniProt O15294)
inactive: [1] 0.029 | [2] 0.012 | [3] 0.016 | [4] 0.067 | [5] 0.039

PACSIN2 (UniProt Q9UNF0)
inactive: [1] -0.024 | [2] 0.037 | [3] 0.013 | [4] 0.011 | [5] 0.05

OSTF1 (UniProt Q92882)
inactive: [1] 0.014 | [2] 0.001 | [3] 0.014 | [4] -0.017 | [5] -0.001

NXPE1 (UniProt F5H0Y6)
inactive: [1] 0.043 | [2] -0.11

NUP210 (UniProt Q8TEM1)
inactive: [1] -0.101 | [2] 0.07 | [3] 0.016 | [4] 0.04 | [5] 0.028

OCIAD1 (UniProt D6RF01)
inactive: [1] 0.106 | [2] -0.095

PAK2 (UniProt Q13177)
inactive: [1] -0.003 | [2] 0.014 | [3] 0.004 | [4] -0.015 | [5] 0.04

OSBPL9 (UniProt E9PLH0)
inactive: [1] 0.178 | [2] 0.107

PALM (UniProt O75781)
inactive: [1] -0.012 | [2] 0.057 | [3] 0.04 | [4] 0 | [5] -0.036

OTUD4 (UniProt Q01804)
inactive: [1] 0.011 | [2] 0.013 | [3] -0.063 | [4] -0.017 | [5] 0.012

PAK4 (UniProt O96013)
inactive: [1] -0.06 | [2] -0.03 | [3] -0.018 | [4] -0.021 | [5] -0.14

NUP85 (UniProt Q9BW27)
inactive: [1] -0.027 | [2] 0.028 | [3] 0.046 | [4] -0.009 | [5] -0.003

PAF1 (UniProt Q8N7H5)
inactive: [1] 0.029 | [2] 0.008 | [3] -0.014 | [4] -0.004 | [5] -0.012

PANK2 (UniProt Q9BZ23)
inactive: [1] 0.024 | [2] 0.081 | [3] -0.021 | [4] 0.019 | [5] -0.077

OXSR1 (UniProt O95747)
inactive: [1] -0.035 | [2] -0.001 | [3] 0.004 | [4] 0.023 | [5] 0.039

PAGE5 (UniProt Q96GU1)
inactive: [1] -0.008 | [2] -0.084 | [3] 0.01 | [4] -0.054 | [5] 0.232

OSGEPL1 (UniProt Q9H4B0)
inactive: [1] 0.082 | [2] 0.108 | [3] 0.044

OPA3 (UniProt Q9H6K4)
inactive: [1] -0.008 | [2] -0.043 | [3] -0.005 | [4] -0.022 | [5] -0.071

PARD6B (UniProt Q9BYG5)
inactive: [1] 0.032 | [2] 0.001 | [3] -0.015 | [4] 0.007 | [5] 0.006

OSBP2 (UniProt Q969R2)
inactive: [1] 0.021 | [2] 0.046 | [3] 0.019 | [4] -0.095 | [5] -0.439

OSTC isoform 2 (UniProt Q9NRP0)
inactive: [1] -0.027 | [2] 0.051 | [3] 0.003 | [4] -0.058 | [5] 0.081

OTULIN (UniProt Q96BN8)
inactive: [1] -0.013 | [2] 0.027 | [3] 0.06 | [4] 0.108 | [5] 0.004

PAOX (UniProt Q6QHF9)
inactive: [1] 0.18 | [2] 0.046

OFD1 (UniProt O75665)
inactive: [1] -0.085 | [2] 0.13 | [3] 0.106 | [4] 0.089 | [5] 0.016

OGFOD3 (UniProt Q6PK18)
inactive: [1] 0.088 | [2] 0.058 | [3] 0.054 | [4] -0.013 | [5] -0.024

OGA (UniProt O60502)
inactive: [1] -0.024 | [2] -0.001 | [3] -0.021 | [4] 0.001 | [5] 0.001

PAAF1 (UniProt Q9BRP4)
inactive: [1] 0.006 | [2] 0.008 | [3] 0.007 | [4] 0.048 | [5] -0.049

OSTC (UniProt Q9NRP0)
inactive: [1] -0.053 | [2] -0.1 | [3] 0.18 | [4] -0.109 | [5] -0.06

PANK4 (UniProt Q9NVE7)
inactive: [1] -0.009 | [2] -0.025 | [3] 0.026 | [4] 0.003 | [5] -0.013

OSBPL6 isoform 5 (UniProt Q9BZF3)
inactive: [1] 0.014 | [2] -0.023 | [3] 0.02 | [4] 0.023 | [5] -0.087

PAPOLA (UniProt P51003)
inactive: [1] -0.018 | [2] -0.016 | [3] 0.019 | [4] -0.008 | [5] 0.007

OVCA2 (UniProt Q8WZ82)
inactive: [1] 0.006 | [2] 0.007 | [3] 0.096 | [4] -0.001 | [5] 0.004

OLA1 (UniProt Q9NTK5)
inactive: [1] -0.001 | [2] 0.04 | [3] 0 | [4] 0.011 | [5] 0.022

PAN2 isoform 2 (UniProt Q504Q3)
inactive: [1] -0.108 | [2] 0.086 | [3] -0.004 | [4] -0.044 | [5] 0.007

PAK1 (UniProt Q13153)
inactive: [1] 0.029 | [2] -0.009 | [3] -0.011 | [4] 0.015 | [5] -0.126

PABPC1 (UniProt P11940)
inactive: [1] -0.014 | [2] 0.002 | [3] 0.015 | [4] 0.082 | [5] 0.107

PAFAH1B2 (UniProt P68402)
inactive: [1] 0.055 | [2] -0.146 | [3] 0 | [4] -0.071 | [5] -0.09

OS9 (UniProt Q13438)
inactive: [1] -0.018 | [2] -0.004 | [3] 0.016 | [4] -0.026 | [5] -0.025

OTC (UniProt P00480)
inactive: [1] -0.11 | [2] 0.131 | [3] -0.028 | [4] -0.38
active: [5] -2.16

Two records drawn at random from those above, as already listed:
PAK1 (UniProt Q13153)
inactive: [1] 0.029 | [2] -0.009 | [3] -0.011 | [4] 0.015 | [5] -0.126

ORC5 (UniProt O43913)
inactive: [1] -0.037 | [2] -0.022 | [3] 0.029 | [4] 0.003 | [5] 0.021

(cont.)

PAFAH1B3 (UniProt Q15102)
inactive: [1] 0 | [2] 0.042 | [3] 0.045 | [4] 0.047 | [5] 0.014

NUP160 (UniProt Q12769)
inactive: [1] -0.021 | [2] -0.027 | [3] 0.012 | [4] -0.04 | [5] 0.01

ORC4 (UniProt O43929)
inactive: [1] -0.047 | [2] 0.027 | [3] 0.05 | [4] 0.023 | [5] 0.044

OBSL1 (UniProt O75147)
inactive: [1] -0.042 | [2] 0.058 | [3] 0.03 | [4] 0.055 | [5] -0.006

OSBPL3 isoform 2 (UniProt Q9H4L5)
inactive: [1] -0.02 | [2] -0.018 | [3] 0.043 | [4] -0.017 | [5] 0.004

PAIP1 (UniProt Q9H074)
inactive: [1] 0.005 | [2] 0.011 | [3] -0.016 | [4] 0.096 | [5] -0.052

OTUD5 isoform 5 (UniProt Q96G74)
inactive: [1] 0.025 | [2] 0.003 | [3] -0.002 | [4] -0.025 | [5] -0.028

NVL (UniProt O15381)
inactive: [1] -0.063 | [2] -0.071 | [3] 0.143 | [4] 0.098 | [5] 0.07

OTUB1 (UniProt Q96FW1)
inactive: [1] -0.013 | [2] 0.024 | [3] -0.02 | [4] -0.015 | [5] -0.033

OMA1 (UniProt Q96E52)
inactive: [1] 0.014 | [2] 0.006 | [3] 0.073 | [4] 0.015 | [5] 0.016

PARK7 (UniProt Q99497)
inactive: [1] -0.035 | [2] 0.001 | [3] 0.006 | [4] -0.001 | [5] 0.021

OPA1 isoform 2 (UniProt O60313)
inactive: [1] -0.048 | [2] 0.021 | [3] 0.038 | [4] 0.005 | [5] 0.084
